PubChem BioAssay AID1508588, Peter MacCallum Cancer Centre – 2020

Test: 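Knock-downs boosting vemurafenib effects on melanoma cell growth or lactate release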 (primary screen)
System: human WM266.4 melanoma cells (BRAF V600 mutant)
Reagents: siRNA pool against human genes, 40 nM
Time to read-out: 96 h from transfection to read-out
Treatment: vemurafenib 300 nM (about IC25), added 48 h after transfection, for 48 h; comparison arm got DMSO vehicle only
Measured: 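Cell gain (DAPI nuclei at end minus before drug, mean of two replicates) and medium lactate by absorbance per cell, both as ratio to non-targeting siRNA, also grouped into fold-change classes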
Direction: cell gain with vemurafenib: higher = more cell gain than with non-targeting siRNA; lactate per cell with vemurafenib: higher = more lactate made per cell
Active means: 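Enhancement is called by pairing each knock-down's vehicle-arm and drug-arm fold-change classes for viability or glycolysis; which class combinations qualify is not given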
Calls: active = enhances vemurafenib effect; inactive = no enhancement seen
This is an unselected part of about 18,000 deposited reagents. 790 of all reagents (4.4%) count as active. 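Calls rest on a combination of fold-change classes in drug and vehicle arms, not all shown here.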 Reagent sequences are not shown.

no.	target gene	cell gain with vemurafenib	lactate per cell with vemurafenib	Call
1	TBR1	0.3	1.59	inactive
2	PTTG1IP	0.71	0.41	inactive
3	TAFA1	0.97	0.73	inactive
4	SPAST	0.16	1.25	inactive
5	MAGED2	0.78	0.67	inactive
6	SOX4	0.75	0.7	inactive
7	USP6	0.12	1.21	inactive
8	YJU2B	0.88	0.64	inactive
9	OR4F16	0.79	0.24	inactive
10	TMEM8B	0.43	1.93	inactive
11	OR5H6	0.95	1.03	inactive
12	TNS3	0.73	1.11	inactive
13	HEBP1	0.26	0.57	active
14	CCR6	-0.06	2.14	inactive
15	EPO	0.37	0.35	inactive
16	SRM	0.47	1.06	inactive
17	CLIP3	1.13	0.94	inactive
18	MRPL44	0.74	1.12	inactive
19	SIK1	0.85	0.47	inactive
20	RPS11	-0.1	1	inactive
21	SLC9B1	0.95	0.62	inactive
22	TRMO	0	0.66	active
23	RPL23	-0.1	0.41	inactive
24	LTBP1	0.22	1.49	inactive
25	RND1	0.81	1.27	inactive
26	GABBR2	0.1	2.08	inactive
27	MADD	0.75	1.08	inactive
28	MRPL18	0.94	1.64	inactive
29	PLEKHH3	0.82	0.73	inactive
30	NR1I3	0.68	0.94	inactive
31	SLC9A2	0.59	0.89	inactive
32	OR51T1	0.39	0.44	inactive
33	GPR52	0.86	1.14	inactive
34	EREG	0.27	1.28	inactive

Laid out differently: entries from further up.
target gene,cell gain with vemurafenib,lactate per cell with vemurafenib,Call
RPL23,-0.1,0.41,inactive
LTBP1,0.22,1.49,inactive
RND1,0.81,1.27,inactive
